# Experimental data: paper PMC9870081
# Amino acid sequences for entries named in this document (tags omitted). Residues count along the entry.
# UniProt P29279, residues 27-349: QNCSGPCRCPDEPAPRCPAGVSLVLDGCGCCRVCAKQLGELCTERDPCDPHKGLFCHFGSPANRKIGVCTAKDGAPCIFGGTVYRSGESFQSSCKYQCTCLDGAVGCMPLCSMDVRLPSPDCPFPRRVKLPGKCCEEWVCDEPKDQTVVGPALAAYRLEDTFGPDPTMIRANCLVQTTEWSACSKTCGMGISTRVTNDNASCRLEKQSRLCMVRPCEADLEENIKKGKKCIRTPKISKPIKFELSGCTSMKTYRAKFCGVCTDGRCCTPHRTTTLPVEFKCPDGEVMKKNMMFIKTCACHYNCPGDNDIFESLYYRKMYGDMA
# UniProt P37173, residues 23-567: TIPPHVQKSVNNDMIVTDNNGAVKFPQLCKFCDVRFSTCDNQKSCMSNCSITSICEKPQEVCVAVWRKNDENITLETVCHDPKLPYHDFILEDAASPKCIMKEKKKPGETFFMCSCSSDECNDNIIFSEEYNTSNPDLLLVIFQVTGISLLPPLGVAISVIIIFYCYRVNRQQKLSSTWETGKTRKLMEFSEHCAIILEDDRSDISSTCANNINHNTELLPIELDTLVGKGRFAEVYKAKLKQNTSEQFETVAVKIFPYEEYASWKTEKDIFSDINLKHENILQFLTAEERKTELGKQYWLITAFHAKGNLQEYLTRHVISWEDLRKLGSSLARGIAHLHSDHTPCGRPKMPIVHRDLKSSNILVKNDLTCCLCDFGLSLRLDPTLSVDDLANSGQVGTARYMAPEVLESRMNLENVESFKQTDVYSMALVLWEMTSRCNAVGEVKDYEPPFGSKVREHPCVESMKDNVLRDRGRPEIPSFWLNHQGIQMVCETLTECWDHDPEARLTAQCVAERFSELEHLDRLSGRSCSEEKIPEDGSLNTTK
# Results are given in words; binding and its absence hold for the method and conditions named. Binding seen in cells or lysates may run through a third protein. Some binding calls cover weakened binding; strength is not graded here.
# Target: Cellular communication network factor 2 (CCN2) (human) (UniProt P29279)
# Assay: co-IP; HASMCs infected with AdCCN2, starved 6 hours (0.5% FBS), incubated with rhTGF-β1 (1 ng/mL) and rhCCN2 (100 ng/mL) for 30 minutes, fixed with 1% formaldehyde on ice for 10 minutes, lysed in Co-IP buffer; precipitated with anti-CCN2 antibody on protein G beads; Western blot for TGFBR2 and TGF-β1; normal rabbit IgG as negative control
substance,measurement,value
TGF-β receptor 2 (from UniProt P37173 23-567),binding,binds
